In PMC8075410:
Results are given in words; binding and its absence hold for the method and conditions named. Binding seen in cells or lysates may run through a third protein. Tags and fused reporters may be left off the sequences shown.

Sequences of proteins named here, by UniProt entry; tags and fusion partners are left off.
UniProt P37238: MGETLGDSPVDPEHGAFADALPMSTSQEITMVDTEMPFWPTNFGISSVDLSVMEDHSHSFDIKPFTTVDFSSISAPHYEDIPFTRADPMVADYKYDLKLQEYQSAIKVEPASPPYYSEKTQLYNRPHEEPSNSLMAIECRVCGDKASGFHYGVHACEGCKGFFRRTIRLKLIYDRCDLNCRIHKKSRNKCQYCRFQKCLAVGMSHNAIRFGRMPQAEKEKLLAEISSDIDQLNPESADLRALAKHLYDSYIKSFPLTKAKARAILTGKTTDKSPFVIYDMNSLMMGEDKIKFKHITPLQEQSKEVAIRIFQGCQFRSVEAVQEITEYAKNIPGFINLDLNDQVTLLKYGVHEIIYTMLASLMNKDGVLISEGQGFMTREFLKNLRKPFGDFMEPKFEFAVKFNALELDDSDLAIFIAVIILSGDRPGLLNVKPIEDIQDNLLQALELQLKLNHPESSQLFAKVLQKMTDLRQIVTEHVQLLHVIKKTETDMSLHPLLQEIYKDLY

Target: T1, CREB regulated transcription coactivator 1 (Crtc1-Flag) (UniProt Q68ED7)
T1 sequence: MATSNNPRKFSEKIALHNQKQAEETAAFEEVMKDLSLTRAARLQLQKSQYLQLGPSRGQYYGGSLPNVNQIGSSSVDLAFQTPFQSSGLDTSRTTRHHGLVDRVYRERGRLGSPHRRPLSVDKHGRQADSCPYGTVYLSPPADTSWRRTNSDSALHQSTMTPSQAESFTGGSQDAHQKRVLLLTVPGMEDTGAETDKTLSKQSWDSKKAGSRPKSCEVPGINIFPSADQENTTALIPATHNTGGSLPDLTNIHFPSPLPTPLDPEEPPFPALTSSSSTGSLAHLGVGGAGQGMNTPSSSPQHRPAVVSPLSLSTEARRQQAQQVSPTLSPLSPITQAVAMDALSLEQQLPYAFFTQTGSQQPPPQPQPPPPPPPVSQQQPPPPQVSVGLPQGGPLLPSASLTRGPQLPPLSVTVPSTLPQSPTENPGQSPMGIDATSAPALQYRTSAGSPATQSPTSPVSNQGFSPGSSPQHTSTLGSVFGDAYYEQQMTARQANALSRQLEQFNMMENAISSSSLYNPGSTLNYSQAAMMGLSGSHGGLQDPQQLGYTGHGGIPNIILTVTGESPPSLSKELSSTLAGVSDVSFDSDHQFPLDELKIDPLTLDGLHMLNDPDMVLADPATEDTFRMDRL
Assay: co-IP; Crtc1-Flag and Pparγ-HA co-transfected into 293T cells; lysate in IP lysis buffer, pre-cleared, precipitated with Flag or HA primary antibody overnight at 4°C and protein G agarose beads; western blot

- binding: no binding
Substance: Peroxisome proliferator activated receptor γ (Pparγ-HA) (from UniProt P37238 1-505)
